Some of these results come from one statement about several compounds together.
How the values were obtained:
Format in all cases: in vivo
[1] = test system: Puccinia recondita f. sp. tritici; assay: Puccinia recondita f. sp. tritici / wheat / leaf disc preventative (brown rust); details: 200 ppm in the formulation; wheat leaf segments cv. Kanzler, inoculated 1 day after application, assessed 7 to 9 days after application, vs untreated
[2] = test system: Phaeosphaeria nodorum (Septoria nodorum); assay: Phaeosphaeria nodorum (Septoria nodorum) / wheat / leaf disc preventative (glume blotch); details: 200 ppm in the formulation; wheat leaf segments cv. Kanzler, inoculated 2 days after application, assessed 5 to 7 days after application, vs untreated
[3] = test system: Blumeria graminis f. sp. tritici (Erysiphe graminis f. sp. tritici); assay: Blumeria graminis f. sp. tritici / wheat / leaf disc preventative (powdery mildew on wheat); details: 200 ppm in the formulation; wheat leaf segments cv. Kanzler, inoculated 1 day after application, assessed 6-8 days after application, vs untreated

CC(OC(=O)[C@H](C)NC(=O)c1nccc(N)c1O)C(c1ccc(F)cc1)c1ccc(F)cc1 (stereo partly drawn) [I.w.42, [2,2-bis(4-fluorophenyl)-1-methyl-ethyl] (2S)-2-[(4-amino-3-hydroxy-pyridine-2-carbonyl)amino]propanoate]
disease control [1]: at least 80%

CC(C)C(=O)OCOc1c(NC=O)ccnc1C(=O)N[C@@H](C)C(=O)OC(C)C(c1ccc(F)cc1)c1ccc(F)cc1 (stereo partly drawn) [Compound I.k.42, [2-[[(1S)-2-[2,2-bis(4-fluorophenyl)-1-methyl-ethoxy]-1-methyl-2-oxo-ethyl]carbamoyl]-4-formamido-3-pyridyl]oxymethyl 2-methylpropanoate]
disease control [2]: at least 80% | disease control [3]: at least 80% | disease control [1]: at least 80%

CC(C)C(=O)OCOc1c(NC=O)ccnc1C(=O)N[C@@H](C)C(=O)OC(C)C(c1ccccc1)c1ccccc1 (stereo partly drawn) [Compound I.k.33, [4-formamido-2-[[(1S)-1-methyl-2-(1-methyl-2,2-diphenyl-ethoxy)-2-oxo-ethyl]carbamoyl]-3-pyridyl]oxymethyl 2-methylpropanoate]
disease control [2]: at least 80% | disease control [3]: at least 80% | disease control [1]: at least 80%

CC(OC(=O)[C@H](C)NC(=O)c1nccc(NC=O)c1O)C(c1ccc(F)cc1)c1ccc(F)cc1 (stereo partly drawn) [Compound I.a.42, [2,2-bis(4-fluorophenyl)-1-methyl-ethyl] (2S)-2-[(4-formamido-3-hydroxy-pyridine-2-carbonyl)amino] propanoate]
disease control [2]: at least 80% | disease control [3]: at least 80% | disease control [1]: at least 80%

CC(C)C(=O)OCOc1c(N)ccnc1C(=O)N[C@@H](C)C(=O)OC(C)C(c1ccccc1)c1ccccc1 (stereo partly drawn) [I.y.33, [4-amino-2-[[(1S)-1-methyl-2-(1-methyl-2,2-diphenyl-ethoxy)-2-oxo-ethyl]carbamoyl]-3-pyridyl] oxymethyl 2-methylpropanoate]
disease control [2]: at least 80% | disease control [1]: at least 80%

CC(C)C(=O)OCOc1c(N)ccnc1C(=O)N[C@@H](C)C(=O)OC(C)C(c1ccc(F)cc1)c1ccc(F)cc1 (stereo partly drawn) [I.y.42, [4-amino-2-[[(1S)-2-[2,2-bis(4-fluorophenyl)-1-methyl-ethoxy]-1-methyl-2-oxo-ethyl]carbamoyl]-3-pyridyl]oxymethyl 2-methylpropanoate]
disease control [2]: at least 80% | disease control [3]: at least 80% | disease control [1]: at least 80%

Reference: patent US20220264877A1, “MICROBIOCIDAL PICOLINAMIDE DERIVATIVES” (SYNGENTA CROP PROTECTION AG, priority 2019, published 2022)
